The results in this text go back to paper PMC7594058.

Protein sequences, listed by entry. Tags and fused reporters are not part of them. Lines headed by an entry give the natural chain unless they say otherwise; changes in a name come on top.
UniProt P03072: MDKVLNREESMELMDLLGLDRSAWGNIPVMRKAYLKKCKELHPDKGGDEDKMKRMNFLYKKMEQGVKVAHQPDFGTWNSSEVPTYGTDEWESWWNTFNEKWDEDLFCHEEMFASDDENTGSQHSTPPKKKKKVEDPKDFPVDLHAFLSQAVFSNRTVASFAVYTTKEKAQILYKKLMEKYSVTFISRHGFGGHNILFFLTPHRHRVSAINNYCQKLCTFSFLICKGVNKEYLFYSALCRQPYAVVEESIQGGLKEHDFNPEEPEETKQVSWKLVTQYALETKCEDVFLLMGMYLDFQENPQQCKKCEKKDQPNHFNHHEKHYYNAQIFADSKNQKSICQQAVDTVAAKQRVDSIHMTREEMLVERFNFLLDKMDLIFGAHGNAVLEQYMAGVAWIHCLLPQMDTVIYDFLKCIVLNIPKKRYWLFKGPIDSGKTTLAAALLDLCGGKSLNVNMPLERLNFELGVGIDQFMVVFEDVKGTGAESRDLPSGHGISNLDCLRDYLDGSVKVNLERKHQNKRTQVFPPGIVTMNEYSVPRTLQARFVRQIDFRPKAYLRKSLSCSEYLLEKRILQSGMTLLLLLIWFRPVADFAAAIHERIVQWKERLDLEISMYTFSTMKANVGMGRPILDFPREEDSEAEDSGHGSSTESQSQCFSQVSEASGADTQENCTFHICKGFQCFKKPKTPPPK
UniProt P03083: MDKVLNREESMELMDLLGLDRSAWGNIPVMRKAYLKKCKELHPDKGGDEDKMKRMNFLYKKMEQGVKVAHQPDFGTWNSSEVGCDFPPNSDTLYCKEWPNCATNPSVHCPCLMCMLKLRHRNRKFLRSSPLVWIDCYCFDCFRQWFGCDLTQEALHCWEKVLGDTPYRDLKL
UniProt Q9H1B7: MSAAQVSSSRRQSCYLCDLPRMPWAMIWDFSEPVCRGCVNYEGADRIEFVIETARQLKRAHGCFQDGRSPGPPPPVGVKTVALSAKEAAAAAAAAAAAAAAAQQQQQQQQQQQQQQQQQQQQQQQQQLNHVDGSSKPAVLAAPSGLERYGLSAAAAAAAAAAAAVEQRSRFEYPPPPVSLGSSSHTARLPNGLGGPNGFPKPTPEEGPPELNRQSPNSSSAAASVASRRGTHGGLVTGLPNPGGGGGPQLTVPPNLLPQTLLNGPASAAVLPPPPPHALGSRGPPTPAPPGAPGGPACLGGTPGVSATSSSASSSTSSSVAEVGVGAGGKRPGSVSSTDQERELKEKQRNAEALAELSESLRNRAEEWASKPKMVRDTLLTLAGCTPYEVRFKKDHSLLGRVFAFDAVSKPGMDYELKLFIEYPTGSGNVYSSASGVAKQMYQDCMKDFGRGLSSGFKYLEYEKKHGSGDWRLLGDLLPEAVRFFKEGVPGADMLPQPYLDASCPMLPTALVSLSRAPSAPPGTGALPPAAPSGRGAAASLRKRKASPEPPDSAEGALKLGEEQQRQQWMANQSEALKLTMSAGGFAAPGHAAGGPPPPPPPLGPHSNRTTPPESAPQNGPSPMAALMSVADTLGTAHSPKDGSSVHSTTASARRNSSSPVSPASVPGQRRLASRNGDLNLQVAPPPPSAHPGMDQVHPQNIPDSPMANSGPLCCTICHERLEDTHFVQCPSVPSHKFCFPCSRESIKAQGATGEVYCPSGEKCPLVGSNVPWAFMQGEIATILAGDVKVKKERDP
UniProt Q14258: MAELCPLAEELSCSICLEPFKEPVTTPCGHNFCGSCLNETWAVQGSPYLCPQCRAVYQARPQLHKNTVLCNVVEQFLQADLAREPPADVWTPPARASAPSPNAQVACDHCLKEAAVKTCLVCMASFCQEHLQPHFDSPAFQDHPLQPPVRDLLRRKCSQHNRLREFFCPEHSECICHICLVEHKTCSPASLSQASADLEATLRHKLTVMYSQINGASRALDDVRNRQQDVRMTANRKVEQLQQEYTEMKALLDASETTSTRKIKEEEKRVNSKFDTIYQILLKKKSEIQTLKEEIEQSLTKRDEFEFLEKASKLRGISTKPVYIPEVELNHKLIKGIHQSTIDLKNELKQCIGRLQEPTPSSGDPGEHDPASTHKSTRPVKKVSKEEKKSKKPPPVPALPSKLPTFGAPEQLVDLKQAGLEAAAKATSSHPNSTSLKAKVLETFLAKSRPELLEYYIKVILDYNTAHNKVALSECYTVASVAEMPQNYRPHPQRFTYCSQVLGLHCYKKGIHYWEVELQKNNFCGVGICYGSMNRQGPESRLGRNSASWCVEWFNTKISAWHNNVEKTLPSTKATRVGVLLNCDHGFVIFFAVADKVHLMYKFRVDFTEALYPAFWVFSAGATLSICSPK
UniProt O95831: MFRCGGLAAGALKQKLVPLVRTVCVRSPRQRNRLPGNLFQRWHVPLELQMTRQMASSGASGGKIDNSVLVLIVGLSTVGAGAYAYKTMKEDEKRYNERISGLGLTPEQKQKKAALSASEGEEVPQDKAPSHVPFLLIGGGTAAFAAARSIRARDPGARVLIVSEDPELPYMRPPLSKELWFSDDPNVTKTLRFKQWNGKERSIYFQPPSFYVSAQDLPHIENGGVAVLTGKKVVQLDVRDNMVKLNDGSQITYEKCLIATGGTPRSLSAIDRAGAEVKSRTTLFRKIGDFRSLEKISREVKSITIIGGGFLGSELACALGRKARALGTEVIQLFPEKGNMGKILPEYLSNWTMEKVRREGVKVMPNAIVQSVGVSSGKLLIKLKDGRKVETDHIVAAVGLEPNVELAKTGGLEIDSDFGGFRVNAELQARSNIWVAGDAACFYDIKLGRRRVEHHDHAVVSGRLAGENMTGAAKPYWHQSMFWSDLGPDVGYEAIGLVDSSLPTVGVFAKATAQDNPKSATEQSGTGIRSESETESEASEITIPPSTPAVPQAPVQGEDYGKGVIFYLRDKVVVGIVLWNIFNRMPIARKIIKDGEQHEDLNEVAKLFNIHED
UniProt Q9NVX2: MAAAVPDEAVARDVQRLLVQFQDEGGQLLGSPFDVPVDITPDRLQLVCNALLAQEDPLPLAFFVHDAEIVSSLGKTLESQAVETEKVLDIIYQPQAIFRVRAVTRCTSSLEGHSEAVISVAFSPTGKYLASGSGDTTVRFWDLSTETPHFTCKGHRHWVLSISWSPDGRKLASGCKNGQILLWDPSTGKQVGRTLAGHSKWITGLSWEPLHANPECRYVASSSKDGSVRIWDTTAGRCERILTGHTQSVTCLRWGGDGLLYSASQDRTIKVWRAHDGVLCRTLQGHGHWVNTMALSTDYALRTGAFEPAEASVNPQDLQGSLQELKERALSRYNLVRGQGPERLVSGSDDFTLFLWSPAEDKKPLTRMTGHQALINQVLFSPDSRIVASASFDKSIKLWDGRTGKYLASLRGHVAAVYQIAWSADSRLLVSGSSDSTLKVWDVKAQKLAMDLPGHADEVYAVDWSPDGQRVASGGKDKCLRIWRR
UniProt Q9H5H4: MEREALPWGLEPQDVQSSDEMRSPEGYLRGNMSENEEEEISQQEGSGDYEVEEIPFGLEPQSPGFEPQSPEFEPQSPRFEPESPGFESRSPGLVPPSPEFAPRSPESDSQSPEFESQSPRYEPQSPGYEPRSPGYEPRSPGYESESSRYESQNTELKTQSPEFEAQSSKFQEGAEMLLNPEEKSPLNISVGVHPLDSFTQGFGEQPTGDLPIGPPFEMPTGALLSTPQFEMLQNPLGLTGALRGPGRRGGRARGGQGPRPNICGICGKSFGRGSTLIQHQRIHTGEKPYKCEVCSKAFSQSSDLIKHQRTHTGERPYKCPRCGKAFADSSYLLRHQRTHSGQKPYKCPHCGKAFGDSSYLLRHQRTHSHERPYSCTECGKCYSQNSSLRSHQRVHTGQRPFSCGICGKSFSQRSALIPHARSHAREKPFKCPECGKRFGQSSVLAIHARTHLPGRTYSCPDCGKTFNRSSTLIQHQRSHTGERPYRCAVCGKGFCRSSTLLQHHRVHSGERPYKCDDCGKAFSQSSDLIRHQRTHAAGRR
UniProt P28370: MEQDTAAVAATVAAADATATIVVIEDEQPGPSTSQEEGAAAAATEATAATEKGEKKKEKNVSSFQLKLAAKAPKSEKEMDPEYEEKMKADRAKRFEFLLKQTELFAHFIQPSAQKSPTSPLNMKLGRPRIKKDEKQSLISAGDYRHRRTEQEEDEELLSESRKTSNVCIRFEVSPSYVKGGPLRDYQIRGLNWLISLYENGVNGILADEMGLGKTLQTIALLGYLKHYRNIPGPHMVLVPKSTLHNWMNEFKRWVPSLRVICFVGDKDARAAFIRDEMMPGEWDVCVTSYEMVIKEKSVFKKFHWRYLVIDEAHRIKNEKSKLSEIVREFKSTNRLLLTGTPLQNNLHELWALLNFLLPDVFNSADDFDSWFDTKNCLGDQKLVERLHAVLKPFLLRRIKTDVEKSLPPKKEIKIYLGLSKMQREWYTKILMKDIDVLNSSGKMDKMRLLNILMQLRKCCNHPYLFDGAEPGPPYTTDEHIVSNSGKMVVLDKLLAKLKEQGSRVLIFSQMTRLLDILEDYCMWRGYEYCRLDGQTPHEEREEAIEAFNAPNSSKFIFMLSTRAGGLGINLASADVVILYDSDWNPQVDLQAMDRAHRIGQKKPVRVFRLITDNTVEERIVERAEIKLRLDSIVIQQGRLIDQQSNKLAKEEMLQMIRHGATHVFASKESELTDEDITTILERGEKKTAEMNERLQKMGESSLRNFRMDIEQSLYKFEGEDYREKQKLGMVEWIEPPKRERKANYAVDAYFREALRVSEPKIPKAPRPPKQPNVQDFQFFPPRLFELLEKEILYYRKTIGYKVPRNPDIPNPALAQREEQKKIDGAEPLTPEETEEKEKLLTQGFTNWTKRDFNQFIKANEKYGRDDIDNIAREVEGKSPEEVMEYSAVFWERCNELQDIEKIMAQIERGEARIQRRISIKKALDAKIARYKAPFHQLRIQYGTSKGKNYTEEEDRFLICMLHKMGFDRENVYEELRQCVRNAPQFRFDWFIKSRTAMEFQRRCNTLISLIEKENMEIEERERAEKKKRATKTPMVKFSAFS
UniProt O14979: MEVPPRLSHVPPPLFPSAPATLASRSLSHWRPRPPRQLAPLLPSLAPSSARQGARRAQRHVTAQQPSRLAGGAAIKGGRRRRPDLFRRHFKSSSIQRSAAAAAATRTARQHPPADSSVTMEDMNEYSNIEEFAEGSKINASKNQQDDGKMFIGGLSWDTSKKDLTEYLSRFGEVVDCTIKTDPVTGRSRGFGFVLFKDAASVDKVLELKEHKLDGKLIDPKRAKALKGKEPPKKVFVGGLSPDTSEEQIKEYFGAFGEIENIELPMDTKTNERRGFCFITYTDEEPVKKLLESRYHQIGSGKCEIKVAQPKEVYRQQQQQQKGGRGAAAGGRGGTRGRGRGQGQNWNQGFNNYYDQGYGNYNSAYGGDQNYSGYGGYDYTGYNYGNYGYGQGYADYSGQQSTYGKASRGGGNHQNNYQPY
UniProt O60264: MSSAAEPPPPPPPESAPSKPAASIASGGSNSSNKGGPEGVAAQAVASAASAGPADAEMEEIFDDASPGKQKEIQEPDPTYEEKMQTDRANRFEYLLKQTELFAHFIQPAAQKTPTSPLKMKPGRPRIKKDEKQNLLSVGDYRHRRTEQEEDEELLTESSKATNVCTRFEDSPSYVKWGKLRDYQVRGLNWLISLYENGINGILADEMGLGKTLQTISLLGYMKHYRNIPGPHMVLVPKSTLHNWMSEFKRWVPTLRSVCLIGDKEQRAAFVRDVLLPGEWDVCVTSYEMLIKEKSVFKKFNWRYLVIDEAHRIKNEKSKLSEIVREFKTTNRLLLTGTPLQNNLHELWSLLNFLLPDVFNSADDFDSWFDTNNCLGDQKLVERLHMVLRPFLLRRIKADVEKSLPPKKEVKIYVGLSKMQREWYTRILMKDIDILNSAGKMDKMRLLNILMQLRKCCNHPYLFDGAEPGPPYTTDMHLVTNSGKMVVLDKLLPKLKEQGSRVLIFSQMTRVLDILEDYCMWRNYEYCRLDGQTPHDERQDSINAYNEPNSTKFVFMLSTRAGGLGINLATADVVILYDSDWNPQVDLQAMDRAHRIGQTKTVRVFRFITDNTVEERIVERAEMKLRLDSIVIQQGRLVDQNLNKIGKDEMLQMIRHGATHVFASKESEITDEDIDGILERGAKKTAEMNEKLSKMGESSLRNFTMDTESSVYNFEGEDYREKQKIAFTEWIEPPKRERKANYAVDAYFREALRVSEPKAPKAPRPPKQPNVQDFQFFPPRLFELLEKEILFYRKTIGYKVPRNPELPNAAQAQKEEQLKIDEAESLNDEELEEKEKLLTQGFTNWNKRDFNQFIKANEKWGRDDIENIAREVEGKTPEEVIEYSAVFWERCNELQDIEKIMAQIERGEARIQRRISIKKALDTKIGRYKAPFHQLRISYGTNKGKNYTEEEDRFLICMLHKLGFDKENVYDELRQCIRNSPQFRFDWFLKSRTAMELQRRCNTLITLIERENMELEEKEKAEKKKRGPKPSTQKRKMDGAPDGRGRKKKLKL

These are yes or no findings as the source states them, for the method shown. Binding seen in cells or lysates may run through a third protein. These calls come from enrichment with a bait or labelling near it, and not all partners need be listed. For some assays here: No binding means not detected with the bait.

B1: Dihydropyrimidine dehydrogenase [NADP (+)] (protein, UniProt Q12882 4-1025)
chain: VLSKDSADIESILALNPRTQTHATLCSTSAKKLDKKHWKRNPDKNCFNCEKLENNFDDIKHTTLGERGALREAMRCLKCADAPCQKSCPTNLDIKSFITSIANKNYYGAAKMIFSDNPLGLTCGMVCPTSDLCVGGCNLYATEEGPINIGGLQQFATEVFKAMSIPQIRNPSLPPPEKMSEAYSAKIALFGAGPASISCASFLARLGYSDITIFEKQEYVGGLSTSEIPQFRLPYDVVNFEIELMKDLGVKIICGKSLSVNEMTLSTLKEKGYKAAFIGIGLPEPNKDAIFQGLTQDQGFYTSKDFLPLVAKGSKAGMCACHSPLPSIRGVVIVLGAGDTAFDCATSALRCGARRVFIVFRKGFVNIRAVPEEMELAKEEKCEFLPFLSPRKVIVKGGRIVAMQFVRTEQDETGKWNEDEDQMVHLKADVVISAFGSVLSDPKVKEALSPIKFNRWGLPEVDPETMQTSEAWVFAGGDVVGLANTTVESVNDGKQASWYIHKYVQSQYGASVSAKPELPLFYTPIDLVDISVEMAGLKFINPFGLASATPATSTSMIRRAFEAGWGFALTKTFSLDKDIVTNVSPRIIRGTTSGPMYGPGQSSFLNIELISEKTAAYWCQSVTELKADFPDNIVIASIMCSYNKNDWTELAKKSEDSGADALELNLSCPHGMGERGMGLACGQDPELVRNICRWVRQAVQIPFFAKLTPNVTDIVSIARAAKEGGANGVTATNTVSGLMGLKSDGTPWPAVGIAKRTTYGGVSGTAIRPIALRAVTSIARALPGFPILATGGIDSAESGLQFLHSGASVLQVCSAIQNQDFTVIEDYCTGLKALLYLKSIEELQDWDGQSPATVSHQKGKPVPRIAELMDKKLPSFGPYLEQRKKIIAENKIRLKEQNVAFSPLKRNCFIPKRPIPTIKDVIGKALQYLGTFGELSNVEQVVAMIDEEMCINCGKCYMTCNDSGYQAIQFDPETHLPTITDTCTGCTLCLSVCPIVDCIKMVSRTTPYEPKRGVPLSVNPVC
B2: Non-structural maintenance of chromosomes element 1 homolog (protein, UniProt Q8WV22 1-266)
chain: MQGSTRRMGVMTDVHRRFLQLLMTHGVLEEWDVKRLQTHCYKVHDRNATVDKLEDFINNINSVLESLYIEIKRGVTEDDGRPIYALVNLATTSISKMATDFAENELDLFRKALELIIDSETGFASSTNILNLVDQLKGKKMRKKEAEQVLQKFVQNKWLIEKEGEFTLHGRAILEMEQYIRETYPDAVKICNICHSLLIQGQSCETCGIRMHLPCVAKYFQSNAEPRCPHCNDYWPHEIPKVFDPEKERESGVLKSNKKSLRSRQH
B3: Structural maintenance of chromosomes protein 6 (protein, UniProt Q96SB8 1-1091)
chain: MAKRKEENFSSPKNAKRPRQEELEDFDKDGDEDECKGTTLTAAEVGIIESIHLKNFMCHSMLGPFKFGSNVNFVVGNNGSGKSAVLTALIVGLGGRAVATNRGSSLKGFVKDGQNSADISITLRNRGDDAFKASVYGNSILIQQHISIDGSRSYKLKSATGSVVSTRKEELIAILDHFNIQVDNPVSVLTQEMSKQFLQSKNEGDKYKFFMKATQLEQMKEDYSYIMETKERTKEQIHQGEERLTELKRQCVEKEERFQSIAGLSTMKTNLESLKHEMAWAVVNEIEKQLNAIRDNIKIGEDRAARLDRKMEEQQVRLNEAEQKYKDIQDKLEKISEETNARAPECMALKADVVAKKRAYNEAEVLYNRSLNEYKALKKDDEQLCKRIEELKKSTDQSLEPERLERQKKISWLKERVKAFQNQENSVNQEIEQFQQAIEKDKEEHGKIKREELDVKHALSYNQRQLKELKDSKTDRLKRFGPNVPALLEAIDDAYRQGHFTYKPVGPLGACIHLRDPELALAIESCLKGLLQAYCCHNHADERVLQALMKRFYLPGTSRPPIIVSEFRNEIYDVRHRAAYHPDFPTVLTALEIDNAVVANSLIDMRGIETVLLIKNNSVARAVMQSQKPPKNCREAFTADGDQVFAGRYYSSENTRPKFLSRDVDSEISDLENEVENKTAQILNLQQHLSALEKDIKHNEELLKRCQLHYKELKMKIRKNISEIRELENIEEHQSVDIATLEDEAQENKSKMKMVEEHMEQQKENMEHLKSLKIEAENKYDAIKFKINQLSELADPLKDELNLADSEVDNQKRGKRHYEEKQKEHLDTLNKKKRELDMKEKELEEKMSQARQICPERIEVEKSASILDKEINRLRQKIQAEHASHGDREEIMRQYQEARETYLDLDSKVRTLKKFIKLLGEIMEHRFKTYQQFRRCLTLRCKLYFDNLLSQRAYCGKMNFDHKNETLSISVQPGEGNKAAFNDMRALSGGERSFSTVCFILSLWSIAESPFRCLDEFDVYMDMVNRRIAMDLILKMADSQRFRQFILLTPQSMSSLPSSKLIRILRMSDPERGQTTLPFRPVTQEEDDDQR
B4: pRb (protein, UniProt P06400 1-928)
chain: MPPKTPRKTAATAAAAAAEPPAPPPPPPPEEDPEQDSGPEDLPLVRLEFEETEEPDFTALCQKLKIPDHVRERAWLTWEKVSSVDGVLGGYIQKKKELWGICIFIAAVDLDEMSFTFTELQKNIEISVHKFFNLLKEIDTSTKVDNAMSRLLKKYDVLFALFSKLERTCELIYLTQPSSSISTEINSALVLKVSWITFLLAKGEVLQMEDDLVISFQLMLCVLDYFIKLSPPMLLKEPYKTAVIPINGSPRTPRRGQNRSARIAKQLENDTRIIEVLCKEHECNIDEVKNVYFKNFIPFMNSLGLVTSNGLPEVENLSKRYEEIYLKNKDLDARLFLDHDKTLQTDSIDSFETQRTPRKSNLDEEVNVIPPHTPVRTVMNTIQQLMMILNSASDQPSENLISYFNNCTVNPKESILKRVKDIGYIFKEKFAKAVGQGCVEIGSQRYKLGVRLYYRVMESMLKSEEERLSIQNFSKLLNDNIFHMSLLACALEVVMATYSRSTSQNLDSGTDLSFPWILNVLNLKAFDFYKVIESFIKAEGNLTREMIKHLERCEHRIMESLAWLSDSPLFDLIKQSKDREGPTDHLESACPLNLPLQNNHTAADMYLSPVRSPKKKGSTTRVNSTANAETQATSAFQTQKPLKSTSLSLFYKKVYRLAYLRLNTLCERLLSEHPELEHIIWTLFQHTLQNEYELMRDRHLDQIMMCSMYGICKVKNIDLKFKIIVTAYKDLPHAVQETFKRVLIKEEEYDSIIVFYNSVFMQRLKTNILQYASTRPPTLSPIPHIPRSPYKFPSSPLRIPGGNIYISPLKSPYKISEGLPTPTKMTPRSRILVSIGESFGTSEKFQKINQMVCNSDRVLKRSAEGSNPPKPLKKLRFDIEGSDEADGSKHLPGESKFQQKLAEMTSTRTRMQKQKMNDSMDTSNKEEK
B5: U3 small nucleolar RNA-interacting protein (protein, UniProt O43818 1-475)
chain: MSATAAARKRGKPASGAGAGAGAGKRRRKADSAGDRGKSKGGGKMNEEISSDSESESLAPRKPEEEEEEELEETAQEKKLRLAKLYLEQLRQQEEEKAEARAFEEDQVAGRLKEDVLEQRGRLQKLVAKEIQAPASADIRVLRGHQLSITCLVVTPDDSAIFSAAKDCSIIKWSVESGRKLHVIPRAKKGAEGKPPGHSSHVLCMAISSDGKYLASGDRSKLILIWEAQSCQHLYTFTGHRDAVSGLAFRRGTHQLYSTSHDRSVKVWNVAENSYVETLFGHQDAVAALDALSRECCVTAGGRDGTVRVWKIPEESQLVFYGHQGSIDCIHLINEEHMVSGADDGSVALWGLSKKRPLALQREAHGLRGEPGLEQPFWISSVAALLNTDLVATGSHSSCVRLWQCGEGFRQLDLLCDIPLVGFINSLKFSSSGDFLVAGVGQEHRLGRWWRIKEARNSVCIIPLRRVPVPPAAGS

One experiment deals with T7-2xStrep-JCV LT-Ag (JC virus (JCV)) (UniProt P03072). Briefly: affinity purification with mass spectrometry.
Regarding B1, the binding result was “binds”.

As for B2, the binding entry was “binds”.

In the case of B3, the binding entry is on record as “binds”.

Take B4: the binding result is reported as “no binding”.

The target in a further experiment is T7-2xStrep-JCV Sm t-Ag (JC virus (JCV)) (UniProt P03083). Nature of the experiment: affinity purification with mass spectrometry.
As for “BAG family molecular chaperone regulator 2 (from UniProt O95816 1-211)”, the binding entry is recorded as “binds”.

With “Interferon regulatory factor 2-binding protein-like (from UniProt Q9H1B7 1-796)”, the binding entry is reported as “binds”.

As for “Aurora kinase B (from UniProt Q96GD4 1-344)”, the binding result is “binds”.

As for “Ubiquitin carboxyl-terminal hydrolase 11 (from UniProt P51784 1-963)”, the binding entry is “binds”.

Consider “Heat shock 70 kDa protein 4L (from UniProt O95757 1-839)”, for which the binding entry is listed as “binds”.

With “Ribosome biogenesis protein BOP1 (from UniProt Q14137 1-746)”, the binding entry is “binds”.

As to “Golgin subfamily A member 4 (from UniProt Q13439 1-2230)”, the binding result was “binds”.

For “Chromobox protein homolog 1 (from UniProt P83916 1-185)”, the binding entry was “binds”.

As for “Tripartite motif-containing 25, isoform CRA_a (from UniProt Q14258 1-630)”, the binding result is “binds”.

Consider “Apoptosis-inducing factor 1 (from UniProt O95831)”, for which the binding result is listed as “binds”.

On to “cDNA FLJ57449, highly similar to Notchless homolog 1 (from UniProt Q9NVX2 1-485)”, for which the binding entry is given as “binds”.

As to “Protein phosphatase 2 (formerly 2A), regulatory subunit A (PR 65) (from UniProt P30153 1-589)”, the binding entry is reported as “binds”.

As for “cDNA FLJ59521, moderately similar to Zinc finger and SCAN domain-containing protein 2 (from UniProt Q9H5H4 1-540)”, the binding result is listed as “binds”.

With “YTH domain family, member 3, isoform CRA_a (from UniProt Q7Z739 1-585)”, the binding result is listed as “binds”.

Consider “Serine/threonine-protein phosphatase 2A catalytic subunit alpha isoform (from UniProt P67775 1-309)”, for which the binding result was “binds”.

“Smarca1 (SW1-SNF-related, matrix-associated, actin-dependent regulator of chromatin A 1) (from UniProt P28370 1-1042)”: the binding entry is “binds”.

With “cDNA FLJ60148, highly similar to Homo sapiens heterogeneous nuclear ribonucleoprotein D-like (HNRPDL), transcript variant 2 (from UniProt O14979 1-420)”, the binding result was “binds”.

In the case of “Serine/threonine-protein phosphatase 2A catalytic subunit beta isoform (from UniProt P62714 1-309)”, the binding result was “binds”.

Turning to “Succinate Dehydrogenase Complex Flavoprotein Subunit A (from UniProt P31040 43-664)”, the binding entry is “binds”.

Take “Clathrin interactor 1 isoform 1 (from UniProt Q14677 1-625)”: the binding result is “binds”.

Consider “FLJ79343, highly similar to SWI/SNF-related matrix-associated actin-dependent regulator of chromatin subfamily A member 5 (from UniProt O60264 1-1052)”, for which the binding entry is on record as “binds”.

Take B5: the binding entry is on record as “binds”.
